The target in assay [1] is Flag-HA-NPM (UniProt P06748). Briefly: co-IP; nuclear extracts of K562 MOCK, NPM or NPM-MLF1 cells; IP with Flag beads or specific antibodies (CHD4, SNF2H, BRG1, EZH2, CDK9, CTCF, YY1) or isotype-matched IgG overnight at 4°C; IP buffer 50 mM Tris pH 7.5, 145 mM KCl, 0.5% NP40; Western blot; also with 10 μg/mL DNaseI.
Assay [2] concerns the target endogenous NPM (human (endogenous in K562 and HEL)) (UniProt P06748). In words: co-IP; HEL WT cell nuclear extracts; IP with NPM, BRG1, SNF2H antibodies or isotype-matched IgG; Western blot.
Assay [3] addresses Flag-HA-NPM (UniProt P06748). In words: co-IP + SEC; Flag-NPM and Flag-NPM-MLF1 affinity purified complexes from K562 nuclear extracts fractionated on Superose 6 10/300GL; fractions analysed by Western blot. On the technique in general: A western blot detects proteins with antibodies after separation by electrophoresis.
The target of assay [4] is Flag-HA-NPM (UniProt P06748). In words: co-IP; nuclear extracts of K562 MOCK, NPM or NPM-MLF1 cells; IP with Flag beads or specific antibodies (CHD4, SNF2H, BRG1, EZH2, CDK9, CTCF, YY1) or isotype-matched IgG overnight at 4°C; IP buffer 50 mM Tris pH 7.5, 145 mM KCl, 0.5% NP40; Western blot; also with 10 μg/mL DNaseI. The source holds these as a separate data set.

Protein sequences, listed by entry. Tags and fused reporters are not part of them.
UniProt P06748: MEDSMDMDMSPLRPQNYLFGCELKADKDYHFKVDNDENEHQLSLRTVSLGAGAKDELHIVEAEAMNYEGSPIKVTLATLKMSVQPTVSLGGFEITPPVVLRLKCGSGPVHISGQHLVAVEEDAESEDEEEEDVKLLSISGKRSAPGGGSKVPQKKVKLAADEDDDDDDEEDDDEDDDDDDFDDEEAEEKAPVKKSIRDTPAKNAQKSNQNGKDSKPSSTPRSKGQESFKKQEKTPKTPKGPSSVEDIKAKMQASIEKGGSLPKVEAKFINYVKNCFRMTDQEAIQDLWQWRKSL
UniProt Q14839: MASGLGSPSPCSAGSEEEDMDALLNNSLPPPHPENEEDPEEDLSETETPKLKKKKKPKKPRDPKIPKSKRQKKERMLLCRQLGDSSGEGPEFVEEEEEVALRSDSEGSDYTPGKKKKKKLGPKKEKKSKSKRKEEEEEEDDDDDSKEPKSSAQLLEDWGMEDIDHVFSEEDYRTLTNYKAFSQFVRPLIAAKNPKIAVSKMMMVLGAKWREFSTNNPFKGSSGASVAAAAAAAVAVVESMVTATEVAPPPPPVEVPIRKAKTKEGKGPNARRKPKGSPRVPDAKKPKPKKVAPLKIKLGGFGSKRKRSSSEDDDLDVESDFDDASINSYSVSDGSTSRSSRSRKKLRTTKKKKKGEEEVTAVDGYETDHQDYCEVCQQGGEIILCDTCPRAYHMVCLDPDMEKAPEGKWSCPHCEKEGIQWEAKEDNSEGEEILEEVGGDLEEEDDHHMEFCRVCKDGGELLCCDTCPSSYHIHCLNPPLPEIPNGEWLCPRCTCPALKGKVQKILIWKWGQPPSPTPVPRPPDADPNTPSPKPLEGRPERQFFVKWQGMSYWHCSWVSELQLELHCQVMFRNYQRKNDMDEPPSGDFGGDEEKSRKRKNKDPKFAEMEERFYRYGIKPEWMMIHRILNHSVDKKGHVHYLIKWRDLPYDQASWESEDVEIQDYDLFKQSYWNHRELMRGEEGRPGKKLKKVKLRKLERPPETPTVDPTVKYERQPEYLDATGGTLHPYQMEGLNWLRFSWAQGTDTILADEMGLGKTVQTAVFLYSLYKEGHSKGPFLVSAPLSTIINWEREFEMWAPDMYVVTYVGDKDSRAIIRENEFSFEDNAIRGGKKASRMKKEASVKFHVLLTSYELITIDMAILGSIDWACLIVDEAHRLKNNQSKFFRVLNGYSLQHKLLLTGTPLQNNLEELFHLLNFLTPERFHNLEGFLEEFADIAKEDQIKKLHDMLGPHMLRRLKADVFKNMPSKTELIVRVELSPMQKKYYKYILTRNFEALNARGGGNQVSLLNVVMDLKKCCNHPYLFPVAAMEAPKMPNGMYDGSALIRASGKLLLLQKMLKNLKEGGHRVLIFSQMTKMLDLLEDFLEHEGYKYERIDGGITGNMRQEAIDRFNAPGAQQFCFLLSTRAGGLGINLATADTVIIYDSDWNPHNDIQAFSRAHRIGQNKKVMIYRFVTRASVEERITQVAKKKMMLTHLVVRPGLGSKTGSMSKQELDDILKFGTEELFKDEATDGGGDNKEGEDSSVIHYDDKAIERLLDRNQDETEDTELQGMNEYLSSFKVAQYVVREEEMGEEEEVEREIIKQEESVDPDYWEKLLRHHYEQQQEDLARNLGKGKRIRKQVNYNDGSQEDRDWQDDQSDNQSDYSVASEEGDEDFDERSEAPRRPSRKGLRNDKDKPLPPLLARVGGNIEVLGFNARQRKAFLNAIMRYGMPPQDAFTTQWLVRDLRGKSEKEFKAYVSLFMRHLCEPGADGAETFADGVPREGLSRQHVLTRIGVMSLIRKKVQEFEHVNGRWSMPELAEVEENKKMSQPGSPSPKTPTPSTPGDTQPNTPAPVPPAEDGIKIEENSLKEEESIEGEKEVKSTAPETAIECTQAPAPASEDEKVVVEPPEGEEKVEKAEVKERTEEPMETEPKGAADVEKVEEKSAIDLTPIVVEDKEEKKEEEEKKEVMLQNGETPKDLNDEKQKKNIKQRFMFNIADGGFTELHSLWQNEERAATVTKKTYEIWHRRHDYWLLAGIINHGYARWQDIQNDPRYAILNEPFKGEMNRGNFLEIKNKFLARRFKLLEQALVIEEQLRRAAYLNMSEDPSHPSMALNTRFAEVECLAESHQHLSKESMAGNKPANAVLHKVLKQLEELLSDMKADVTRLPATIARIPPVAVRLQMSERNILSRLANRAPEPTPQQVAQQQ
UniProt Q13547: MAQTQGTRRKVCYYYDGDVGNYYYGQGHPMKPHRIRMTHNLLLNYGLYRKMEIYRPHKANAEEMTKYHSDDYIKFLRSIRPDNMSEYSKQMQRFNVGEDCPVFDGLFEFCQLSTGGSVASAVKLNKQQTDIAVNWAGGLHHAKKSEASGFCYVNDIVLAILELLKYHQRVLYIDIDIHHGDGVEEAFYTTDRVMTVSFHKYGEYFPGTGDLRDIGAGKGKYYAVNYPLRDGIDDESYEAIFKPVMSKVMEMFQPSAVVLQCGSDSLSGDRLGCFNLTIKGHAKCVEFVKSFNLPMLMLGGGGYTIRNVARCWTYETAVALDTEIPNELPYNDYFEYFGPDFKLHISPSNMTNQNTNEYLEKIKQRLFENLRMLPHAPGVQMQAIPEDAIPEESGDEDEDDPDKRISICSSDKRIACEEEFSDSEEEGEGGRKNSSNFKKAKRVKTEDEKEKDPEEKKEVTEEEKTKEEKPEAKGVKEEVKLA
UniProt Q12873: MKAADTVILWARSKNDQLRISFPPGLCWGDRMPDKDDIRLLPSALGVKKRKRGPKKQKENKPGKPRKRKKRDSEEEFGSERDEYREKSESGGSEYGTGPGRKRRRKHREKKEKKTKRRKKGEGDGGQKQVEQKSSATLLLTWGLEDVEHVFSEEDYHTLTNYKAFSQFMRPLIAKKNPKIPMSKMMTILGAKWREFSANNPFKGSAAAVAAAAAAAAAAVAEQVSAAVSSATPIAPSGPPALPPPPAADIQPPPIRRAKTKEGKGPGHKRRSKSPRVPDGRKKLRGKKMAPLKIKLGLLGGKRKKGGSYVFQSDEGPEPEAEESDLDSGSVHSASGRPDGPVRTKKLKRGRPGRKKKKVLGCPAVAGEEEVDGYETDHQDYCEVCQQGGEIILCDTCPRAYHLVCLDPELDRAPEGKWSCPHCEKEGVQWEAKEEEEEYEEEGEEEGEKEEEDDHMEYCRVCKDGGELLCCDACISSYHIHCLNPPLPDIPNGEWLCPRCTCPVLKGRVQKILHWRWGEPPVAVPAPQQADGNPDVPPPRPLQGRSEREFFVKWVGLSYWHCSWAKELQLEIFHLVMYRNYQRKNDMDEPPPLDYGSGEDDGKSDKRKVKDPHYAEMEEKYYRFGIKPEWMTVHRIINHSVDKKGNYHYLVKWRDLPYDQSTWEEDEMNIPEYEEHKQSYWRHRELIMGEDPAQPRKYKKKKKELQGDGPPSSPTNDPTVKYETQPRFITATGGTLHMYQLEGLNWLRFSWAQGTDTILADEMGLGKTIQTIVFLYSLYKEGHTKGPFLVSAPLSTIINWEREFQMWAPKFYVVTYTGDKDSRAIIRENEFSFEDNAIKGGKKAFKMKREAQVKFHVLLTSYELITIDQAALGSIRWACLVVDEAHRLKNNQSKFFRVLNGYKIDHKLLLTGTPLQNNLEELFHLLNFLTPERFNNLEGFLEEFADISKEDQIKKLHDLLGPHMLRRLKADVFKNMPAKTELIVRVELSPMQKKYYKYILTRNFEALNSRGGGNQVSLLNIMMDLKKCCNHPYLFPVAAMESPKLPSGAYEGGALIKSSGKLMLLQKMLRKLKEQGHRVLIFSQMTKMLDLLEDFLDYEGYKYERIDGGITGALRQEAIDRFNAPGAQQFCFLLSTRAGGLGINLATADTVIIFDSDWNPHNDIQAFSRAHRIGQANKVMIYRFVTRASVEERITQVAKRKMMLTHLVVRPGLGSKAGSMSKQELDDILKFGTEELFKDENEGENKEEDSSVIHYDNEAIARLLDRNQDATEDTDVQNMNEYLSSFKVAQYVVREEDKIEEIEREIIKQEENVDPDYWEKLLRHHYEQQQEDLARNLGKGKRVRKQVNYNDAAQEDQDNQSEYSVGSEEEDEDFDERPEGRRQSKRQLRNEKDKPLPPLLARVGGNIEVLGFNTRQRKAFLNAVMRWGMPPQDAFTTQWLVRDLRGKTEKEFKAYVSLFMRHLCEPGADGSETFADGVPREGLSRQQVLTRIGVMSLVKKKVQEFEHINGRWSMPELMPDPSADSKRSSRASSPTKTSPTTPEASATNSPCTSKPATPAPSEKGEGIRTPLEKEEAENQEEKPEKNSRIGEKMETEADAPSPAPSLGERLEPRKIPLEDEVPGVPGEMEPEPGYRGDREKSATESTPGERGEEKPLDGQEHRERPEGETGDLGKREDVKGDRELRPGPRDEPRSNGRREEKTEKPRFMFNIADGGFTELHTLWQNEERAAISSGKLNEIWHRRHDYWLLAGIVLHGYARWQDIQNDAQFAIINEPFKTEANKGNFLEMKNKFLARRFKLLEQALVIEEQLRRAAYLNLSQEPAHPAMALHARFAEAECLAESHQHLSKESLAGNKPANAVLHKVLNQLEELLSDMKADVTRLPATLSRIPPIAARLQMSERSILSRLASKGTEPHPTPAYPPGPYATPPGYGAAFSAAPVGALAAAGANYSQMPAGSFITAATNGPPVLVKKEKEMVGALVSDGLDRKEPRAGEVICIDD
UniProt P51532: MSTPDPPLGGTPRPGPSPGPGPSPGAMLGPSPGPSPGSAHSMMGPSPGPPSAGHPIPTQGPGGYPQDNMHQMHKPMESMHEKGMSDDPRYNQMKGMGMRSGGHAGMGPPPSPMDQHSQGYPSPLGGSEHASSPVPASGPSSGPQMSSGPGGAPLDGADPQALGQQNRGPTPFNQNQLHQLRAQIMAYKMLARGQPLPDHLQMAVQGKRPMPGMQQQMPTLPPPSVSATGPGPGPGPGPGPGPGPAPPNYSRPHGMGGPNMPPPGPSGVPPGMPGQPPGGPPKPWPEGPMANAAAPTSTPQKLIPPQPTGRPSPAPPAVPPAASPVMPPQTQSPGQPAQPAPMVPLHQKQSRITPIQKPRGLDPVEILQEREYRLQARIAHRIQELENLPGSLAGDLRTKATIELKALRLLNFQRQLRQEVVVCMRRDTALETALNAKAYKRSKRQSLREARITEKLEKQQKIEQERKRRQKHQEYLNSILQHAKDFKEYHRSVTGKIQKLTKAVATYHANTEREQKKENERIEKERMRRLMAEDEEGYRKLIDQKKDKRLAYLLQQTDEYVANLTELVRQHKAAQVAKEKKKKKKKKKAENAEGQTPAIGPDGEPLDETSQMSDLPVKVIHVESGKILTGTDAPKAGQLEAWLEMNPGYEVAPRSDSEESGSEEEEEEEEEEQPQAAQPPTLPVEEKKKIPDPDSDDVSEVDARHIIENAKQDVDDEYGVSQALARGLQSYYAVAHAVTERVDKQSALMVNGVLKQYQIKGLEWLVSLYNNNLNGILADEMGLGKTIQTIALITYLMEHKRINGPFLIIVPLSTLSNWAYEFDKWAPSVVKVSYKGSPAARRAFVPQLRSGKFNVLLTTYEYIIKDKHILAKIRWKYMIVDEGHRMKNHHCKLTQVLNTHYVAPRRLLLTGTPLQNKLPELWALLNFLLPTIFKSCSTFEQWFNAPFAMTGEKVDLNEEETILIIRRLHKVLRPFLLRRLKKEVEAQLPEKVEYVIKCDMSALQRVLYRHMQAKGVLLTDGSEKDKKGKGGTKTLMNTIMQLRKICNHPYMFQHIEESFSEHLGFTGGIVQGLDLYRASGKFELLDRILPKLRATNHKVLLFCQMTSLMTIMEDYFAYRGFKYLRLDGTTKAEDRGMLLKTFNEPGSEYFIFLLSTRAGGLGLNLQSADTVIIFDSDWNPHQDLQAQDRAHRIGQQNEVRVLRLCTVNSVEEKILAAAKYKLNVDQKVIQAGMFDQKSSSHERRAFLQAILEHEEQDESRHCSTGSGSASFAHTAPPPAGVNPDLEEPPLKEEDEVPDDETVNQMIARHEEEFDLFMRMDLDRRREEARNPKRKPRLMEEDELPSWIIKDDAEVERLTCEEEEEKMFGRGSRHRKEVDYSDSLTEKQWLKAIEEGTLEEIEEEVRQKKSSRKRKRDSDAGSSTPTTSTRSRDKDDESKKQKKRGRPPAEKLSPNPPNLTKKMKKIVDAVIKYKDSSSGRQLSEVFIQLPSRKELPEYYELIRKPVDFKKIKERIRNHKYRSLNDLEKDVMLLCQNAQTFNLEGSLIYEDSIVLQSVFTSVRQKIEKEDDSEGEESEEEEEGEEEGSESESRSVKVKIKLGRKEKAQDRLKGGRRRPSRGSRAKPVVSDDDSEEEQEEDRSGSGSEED

Results are given in words; binding and its absence hold for the method and conditions named. Binding seen in cells or lysates may run through a third protein. Some binding calls cover weakened binding; strength is not graded here.

For RBBP5 (from UniProt Q15291 1-538), in the assay with Flag-HA-NPM [1], the binding result is reported as “binds”.
In the case of SUZ12 (from UniProt Q15022 1-739), the binding result with Flag-HA-NPM [1] is on record as “binds”.
Regarding “SMARCA5 (SNF2H) (from UniProt O60264 1-1052)”, the binding result (in assay [2]; with Flag-HA-NPM [1]) was “binds” throughout.
Consider CHD4 (from UniProt Q14839 1-1912), for which the binding result (in assay [2]; with Flag-HA-NPM [3]; with Flag-HA-NPM [1]) was “binds” each time.
YY1 (from UniProt P25490 1-414): in the assay with Flag-HA-NPM [1], the binding entry is “binds”.
The same measure, in the same setting: in the case of “CDK9 (from UniProt P50750 1-372) (enzyme)” it was “binds”.
On to HDAC1 (from UniProt Q13547 1-482), for which the binding entry in the assay with Flag-HA-NPM [3] is listed as “binds”.
With CHD3 (from UniProt Q12873 1-2000), the binding result with Flag-HA-NPM [3] and in the assay with Flag-HA-NPM [1] was “binds” throughout.
For “SMARCA1 (SNF2L) (from UniProt P28370 1-1042)”, the binding entry with Flag-HA-NPM [1] is “binds”.
For “SMARCA4 (BRG1) (from UniProt P51532 1-1647)”, the binding result (in assay [2]; with Flag-HA-NPM [1]) was “binds” in each case.

B1: WSTF (BAZ1B) (protein, UniProt Q9UIG0 1-1483)
chain: MAPLLGRKPFPLVKPLPGEEPLFTIPHTQEAFRTREEYEARLERYSERIWTCKSTGSSQLTHKEAWEEEQEVAELLKEEFPAWYEKLVLEMVHHNTASLEKLVDTAWLEIMTKYAVGEECDFEVGKEKMLKVKIVKIHPLEKVDEEATEKKSDGACDSPSSDKENSSQIAQDHQKKETVVKEDEGRRESINDRARRSPRKLPTSLKKGERKWAPPKFLPHKYDVKLQNEDKIISNVPADSLIRTERPPNKEIVRYFIRHNALRAGTGENAPWVVEDELVKKYSLPSKFSDFLLDPYKYMTLNPSTKRKNTGSPDRKPSKKSKTDNSSLSSPLNPKLWCHVHLKKSLSGSPLKVKNSKNSKSPEEHLEEMMKMMSPNKLHTNFHIPKKGPPAKKPGKHSDKPLKAKGRSKGILNGQKSTGNSKSPKKGLKTPKTKMKQMTLLDMAKGTQKMTRAPRNSGGTPRTSSKPHKHLPPAALHLIAYYKENKDREDKRSALSCVISKTARLLSSEDRARLPEELRSLVQKRYELLEHKKRWASMSEEQRKEYLKKKREELKKKLKEKAKERREKEMLERLEKQKRYEDQELTGKNLPAFRLVDTPEGLPNTLFGDVAMVVEFLSCYSGLLLPDAQYPITAVSLMEALSADKGGFLYLNRVLVILLQTLLQDEIAEDYGELGMKLSEIPLTLHSVSELVRLCLRRSDVQEESEGSDTDDNKDSAAFEDNEVQDEFLEKLETSEFFELTSEEKLQILTALCHRILMTYSVQDHMETRQQMSAELWKERLAVLKEENDKKRAEKQKRKEMEAKNKENGKVENGLGKTDRKKEIVKFEPQVDTEAEDMISAVKSRRLLAIQAKKEREIQEREMKVKLERQAEEERIRKHKAAAEKAFQEGIAKAKLVMRRTPIGTDRNHNRYWLFSDEVPGLFIEKGWVHDSIDYRFNHHCKDHTVSGDEDYCPRSKKANLGKNASMNTQHGTATEVAVETTTPKQGQNLWFLCDSQKELDELLNCLHPQGIRESQLKERLEKRYQDIIHSIHLARKPNLGLKSCDGNQELLNFLRSDLIEVATRLQKGGLGYVEETSEFEARVISLEKLKDFGECVIALQASVIKKFLQGFMAPKQKRRKLQSEDSAKTEEVDEEKKMVEEAKVASALEKWKTAIREAQTFSRMHVLLGMLDACIKWDMSAENARCKVCRKKGEDDKLILCDECNKAFHLFCLRPALYEVPDGEWQCPACQPATARRNSRGRNYTEESASEDSEDDESDEEEEEEEEEEEEEDYEVAGLRLRPRKTIRGKHSVIPPAARSGRRPGKKPHSTRRSQPKAPPVDDAEVDELVLQTKRSSRRQSLELQKCEEILHKIVKYRFSWPFREPVTRDEAEDYYDVITHPMDFQTVQNKCSCGSYRSVQEFLTDMKQVFTNAEVYNCRGSHVLSCMVKTEQCLVALLHKHLPGHPYVRRKRKKFPDRLAEDEGDSEPEAVGQSRGRRQKK
Regarding B1, the binding entry in the assay with Flag-HA-NPM [4] is recorded as “binds”.

B2: CTCF (protein, UniProt P49711 1-727)
chain: MEGDAVEAIVEESETFIKGKERKTYQRRREGGQEEDACHLPQNQTDGGEVVQDVNSSVQMVMMEQLDPTLLQMKTEVMEGTVAPEAEAAVDDTQIITLQVVNMEEQPINIGELQLVQVPVPVTVPVATTSVEELQGAYENEVSKEGLAESEPMICHTLPLPEGFQVVKVGANGEVETLEQGELPPQEDPSWQKDPDYQPPAKKTKKTKKSKLRYTEEGKDVDVSVYDFEEEQQEGLLSEVNAEKVVGNMKPPKPTKIKKKGVKKTFQCELCSYTCPRRSNLDRHMKSHTDERPHKCHLCGRAFRTVTLLRNHLNTHTGTRPHKCPDCDMAFVTSGELVRHRRYKHTHEKPFKCSMCDYASVEVSKLKRHIRSHTGERPFQCSLCSYASRDTYKLKRHMRTHSGEKPYECYICHARFTQSGTMKMHILQKHTENVAKFHCPHCDTVIARKSDLGVHLRKQHSYIEQGKKCRYCDAVFHERYALIQHQKSHKNEKRFKCDQCDYACRQERHMIMHKRTHTGEKPYACSHCDKTFRQKQLLDMHFKRYHDPNFVPAAFVCSKCGKTFTRRNTMARHADNCAGPDGVEGENGGETKKSKRGRKRKMRSKKEDSSDSENAEPDLDDNEDEEEPAVEIEPEPEPQPVTPAPPPAKKRRGRPPGRTNQPKQNQPTAIIQVEDQNTGAIENIIVEVKKEPDAEPAEGEEEEAQPAATDAPNGDLTPEMILSMMDR
With B2, the binding entry with Flag-HA-NPM [4] is given as “binds”.

These data come from article PMC6853375.
